Data reported in publication PMC5871880, “Structural insights into the RNA methyltransferase domain of METTL16” (Scientific Reports, 2018).
These are yes or no findings as the source states them, for the method shown.

Target: N-terminal methyltransferase domain (residues 1-291) of human METTL16 (human) (UniProt Q86W50)
Experiment: SEC; analytical SEC on Superdex 200 10/300 GL; samples ~21 µM in 100 µl; 25 mM HEPES pH 7.5, 100 mM KCl, 50 mM NaCl, 1 mM TCEP, 1 mM MgCl2; molecular weights from a standard curve; both purified

- binding: no binding (tested: ~21 µM)
B1: N-terminal methyltransferase domain (residues 1-291) of human METTL16 (domain or fragment, UniProt Q86W50 1-291)
chain: SNAMALSKSMHARNRYKDKPPDFAYLASKYPDFKQHVQINLNGRVSLNFKDPEAVRALTCTLLREDFGLSIDIPLERLIPTVPLRLNYIHWVEDLIGHQDSDKSTLRRGIDIGTGASCIYPLLGATLNGWYFLATEVDDMCFNYAKKNVEQNNLSDLIKVVKVPQKTLLMDALKEESEIIYDFCMCNPPFFANQLEAKGVNSRNPRRPPPSSVNTGGITEIMAEGGELEFVKRIIHDSLQLKKRLRWYSCMLGKKCSLAPLKEELRIQGVPKVTYTEFCQGRTMRWALAWSFYD
